Reference: PMC7689938, “Abscisic acid promotes jasmonic acid biosynthesis via a ‘SAPK10‐bZIP72‐AOC’ pathway to synergistically inhibit seed germination in rice (Oryza sativa)” (The New Phytologist, 2020)

Amino acid sequences for entries named in this document (tags omitted).
UniProt Q67TQ5, entry or part of it: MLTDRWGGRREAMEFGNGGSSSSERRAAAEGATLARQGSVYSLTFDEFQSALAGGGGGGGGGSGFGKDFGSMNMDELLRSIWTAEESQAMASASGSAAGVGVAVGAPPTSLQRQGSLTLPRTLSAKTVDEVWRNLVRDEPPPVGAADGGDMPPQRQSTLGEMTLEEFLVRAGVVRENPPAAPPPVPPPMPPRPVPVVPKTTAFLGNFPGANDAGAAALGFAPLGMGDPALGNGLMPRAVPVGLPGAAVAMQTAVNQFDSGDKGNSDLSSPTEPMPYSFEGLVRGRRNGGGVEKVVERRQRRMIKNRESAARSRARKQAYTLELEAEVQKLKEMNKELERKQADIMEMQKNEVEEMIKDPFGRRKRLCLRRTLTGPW

Key:
[1] = test system: GST-bZIP72 (unphosphorylated) (Oryza sativa ssp. japonica cv Nipponbare); test: EMSA; details: Beyotime EMSA/gel-shift binding buffer (composition not given), 25 C, 20 min preincubation then 20 min with 20 fmol biotin probe, 6% acrylamide gel, recombinant protein, protein details: GST (N-term, pGEX-4T-1), label: biotin
[2] = biological target: p-GST-bZIP72 (phosphorylated) (Oryza sativa ssp. japonica cv Nipponbare) (UniProt Q67TQ5); test: EMSA; details: Beyotime EMSA/gel-shift binding buffer (composition not given), 25 C, 20 min preincubation then 20 min with 20 fmol biotin probe, 6% acrylamide gel, recombinant protein, protein details: GST (N-term, pGEX-4T-1), label: biotin
[3] = biological target: p-GST-bZIP72 (phosphorylated) (Oryza sativa ssp. japonica cv Nipponbare) (UniProt Q67TQ5); test: competition with a labelled probe; details: 50- to 200-fold excess unlabeled probe, dose-dependent; Beyotime EMSA/gel-shift binding buffer (composition not given), 25 C, 20 min preincubation then 20 min with 20 fmol biotin probe; 6% acrylamide gel; recombinant protein; protein details: GST (N-term, pGEX-4T-1)

Row | Sequence | binding result ([1]; unphosphorylated) | binding result ([2]; binding compromised) | further results
1 | CGGTGGCTTTCCGGTGGCCCGGCGATGGGCGCGCACGTGGGGAAGATGGGTGCAGACTCC (double strand) [AOS1 promoter probe] | no binding |  | 
2 | CTCGTAACAGCCCCGGTGTTACACGTGCTCTAAGAGAGATTAATTAAATCGATAAGCTACCAGAGGTTTAGTTTTCCACGTGTTAATTAGATTGGAAAGC (double strand) [GA20ox2 promoter probe] |  |  | binding result [1]: binds
3 | GAGTCCACGGCCATGAGCTTAGCTTGTCATGCACGTAGCTTAATTAGGCCCGGAACTTCC (double strand) [LOX1 promoter probe] | no binding |  | 
4 | GGGAAATTTTGGGGGAGAGAGAGAGCAAACGGGCAGCAGGGGTAGTGCGCGTCCCGCACT (double strand) [AOC P1 mutant CaaacG] |  | binds more weakly | 
5 | GGGAAATTTTGGGGGAGAGAGAGAGCACGAAGGCAGCAGGGGTAGTGCGCGTCCCGCACT (double strand) [AOC P1 mutant CACGaa] |  | binds more weakly | 
6 | GGGAAATTTTGGGGGAGAGAGAGAGCACGTAGGCAGCAGGGGTAGTGCGCGTCCCGCACT (double strand) [AOC P1 mutant CACGTa] |  | binds more weakly | 
7 | GGGAAATTTTGGGGGAGAGAGAGAGCACGTGGGCAGCAGGGGTAGTGCGCGTCCCGCACT (double strand) [AOC P1 unlabeled competitor] |  |  | binding result [3]: binds
8 | GGGAAATTTTGGGGGAGAGAGAGAGCACGTGGGCAGCAGGGGTAGTGCGCGTCCCGCACT (double strand) [AOC promoter probe P1 (G-box CACGTG)] | no binding |  | binding result ([2]; bZIP72 phosphorylated by SAPK10): binds

For at least one entry, the source does not settle the construct or the ends of the probe. For part of these data: No signal at the amounts used counts as a negative. For part of these data: Weaker means in comparison with the reference protein, sequence or condition of that experiment. For part of these data: At least one verdict was read from the data and is not stated in words by the source.
